From the supplement of paper PMC12282887

Tested on: Escherichia coli BW25113
Experiment: growth (OD600 area under curve, 8 h) (OD600 x h); higher = more growth
Procedure: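 E. coli BW25113 reporter strains (wild type, ΔmarA, ΔsoxS, Δrob, each carrying one of 8 lux reporter plasmids) were grown in 40 µl LB in 384-well plates at 37°C, 800 rpm, with each compound at 4 two-fold concentrations, in biological duplicates. Growth is the baseline-corrected OD600 area under the curve over 8 h (0-8 h WT, 1-9 h deletion strains).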

CC(=O)[C@H]1CC[C@H]2[C@@H]3CCC4=CC(=O)CC[C@]4(C)[C@H]3CC[C@]12C [Progesterone]
growth
Conditions | reporter plasmid: EVC | reporter plasmid: acrABp | reporter plasmid: marRABp | reporter plasmid: micFp | reporter plasmid: ompFp | reporter plasmid: robp | reporter plasmid: soxSp | reporter plasmid: tolCp
19.7 µg/ml, genetic background: wild type | 2.88 | 2.93 | 3.07 | 3.16 | 2.94 | 2.92 | 3.12 | 3.19
19.7 µg/ml, genetic background: ΔmarA | 3.07 | 4.22 | 3.45 | 3.24 | 3.43 | 3.58 | 3.13 | 2.99
19.7 µg/ml, genetic background: Δrob | 3.15 | 3 | 3.4 | 3 | 2.36 | 2.75 | 2.67 | 3.19
19.7 µg/ml, genetic background: ΔsoxS | 3.37 | 3.61 | 3.25 | 2.79 | 2.74 | 3.14 | 3.08 | 3.3
39.3 µg/ml, genetic background: wild type | 2.697 | 3.33 | 3.29 | 3.2 | 2.96 | 2.93 | 2.91 | 3
39.3 µg/ml, genetic background: ΔmarA | 3.01 | 4.18 | 3.44 | 3.09 | 3.42 | 3.66 | 2.89 | 2.94
39.3 µg/ml, genetic background: Δrob | 2.7 | 2.97 | 3.31 | 2.67 | 2.16 | 2.58 | 2.6033 | 2.9361
39.3 µg/ml, genetic background: ΔsoxS | 3.14 | 3.33 | 3.19 | 2.63 | 2.87 | 3.08 | 2.96 | 3.11
78.6 µg/ml, genetic background: wild type | 2.98 | 2.88 | 3.12 | 3.174 | 3.09 | 2.8654 | 2.9 | 3.02
78.6 µg/ml, genetic background: ΔmarA | 3.07 | 4.09 | 3.569 | 3.36 | 3.63 | 3.92 | 2.81 | 2.93
78.6 µg/ml, genetic background: Δrob | 2.94 | 3.21 | 3.49 | 3.22 | 2.5 | 2.83 | 2.71 | 3.06
78.6 µg/ml, genetic background: ΔsoxS | 3.26 | 3.35 | 3.62 | 2.94 | 3.15 | 3.27 | 3.1 | 3.14
157.2 µg/ml, genetic background: wild type | 2.97 | 2.83 | 2.98 | 3.09 | 3.07 | 2.89 | 2.55 | 2.87
157.2 µg/ml, genetic background: ΔmarA | 3.05 | 3.72 | 3.29 | 3.27 | 3.57 | 3.85 | 2.73 | 2.88
157.2 µg/ml, genetic background: Δrob | 2.66 | 2.57 | 3.34 | 2.94 | 2.67 | 2.65 | 2.74 | 2.86
157.2 µg/ml, genetic background: ΔsoxS | 3.02 | 2.68 | 3.3 | 2.77 | 2.95 | 3.16 | 3.05 | 3.1

These are raw signals, not scaled to a control.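 Maximum concentrations were near the MIC for antimicrobials, 500 µM for most other compounds, and as high as 1 mM for known inducer-like compounds. Deletion strains began with a tenfold smaller inoculum, and wells with growth under 10% of the overall median counted as non-growing.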
